In this assay the target is FLAG-tagged OVOL2 stably expressed in EL4 T cells (mouse) (UniProt Q8CIV7). As to the kind of experiment: affinity purification with mass spectrometry; anti-FLAG M2 agarose IP (4 h, 4 °C) from EL4 T cells stably expressing FLAG-tagged OVOL2, with (20 or 100 unit) or without DNase I; washed five times in Nonidet P-40 lysis buffer; eluted with 3xFlag peptide; LC-MS/MS; three independent analyses; empty vector control.

These are yes or no findings as the source states them, for the method shown. In cells and extracts the contact can be indirect. A yes stands for co-enrichment or nearness to the bait. Other partners may have been found.

“HDAC2, endogenous in EL4 T cells (from UniProt P70288 1-488)”: the binding entry is recorded as “binds”.
Then “HDAC1, endogenous in EL4 T cells (from UniProt O09106 1-482)”, with “binds”.
